Patent US20060111331A1, “Gave10 agonists for treating inflammation” (Aventis Pharmaceuticals Inc., priority 2004, published 2006)
At least one compound was matched to its structure with a doubt left.

Tested on: TNFα release in mouse macrophages
Assay: TNFα release assay in mouse macrophages
Assay type: cell-based
Conditions: FIG. 3

## C[C@H](CCC(=O)NCCS(=O)(=O)O)[C@H]1CC[C@H]2[C@@H]3CC[C@@H]4C[C@H](O)CC[C@]4(C)[C@H]3CC[C@]12C [taurolithocholic acid, reference compound]
  inhibition of TNFα release: inhibited TNFα release
